Measurements taken from patent US20080014186A1, “Hla-A24 or Hla-A2 Binding Peptides of Parathyroid Hormone-Related Protein” (GREEN PEPTIDE CO., LTD., priority 2004, published 2008).
At least one peptide structure holds a part that was inferred or is arguable (an end, a ring closure or a residue). Ends that are not written are not given here.

Key:
[1] = system: PBMCs of HLA-A24^+ healthy donors and prostate cancer patients; experiment: Assay for peptide-specific CTLs in PBMCs (IFN-γ ELISA, peptide-pulsed C1R-A24 cells); assay type: cell-based, human; conditions: for IFN-γ production: C1R-A24 cells, HIV peptide background subtracted
Description: To investigate the immunogenicity of these four PTHrP peptides, the PBMCs of 10 HLA-A24^+ healthy donors and 10 HLA-A24^+ prostate cancer patients were stimulated with each of the four PTHrP peptides and were examined for their IFN-γ production in response to C1R-A24 cells, which were pre-pulsed with either a corresponding PTHrP peptide or the HIV peptide. Flu- and EBV-derived peptides were used as controls.
The assay for detection of peptide-specific CTLs in PBMCs was performed according to a previously reported method. In brief, PBMCs (1 X 10^5 cells/well) were incubated with […] of each peptide in a U-bottom-type 96-well microculture plate (Nunc, Roskilde, Denmark) at a volume of 200 μl of culture medium. The culture medium consisted of 45% RPMI-1640, 45% AIM-V medium (Gibco BRL), 10% FCS, 100 U/ml of IL-2, and 0.1 mM MEM nonessential amino acid solution (Gibco, BRL). Half of the culture medium was removed and replaced with new medium containing a corresponding peptide (20 μg/ml) every 3 days. On the 15th day of culture, the cultured cells were separated into 4 wells, and two wells were used for PTHrP peptide-pulsed C1R-A24 cells, and the other two wells were used for the HIV peptide-pulsed C1R-A24 cells. After an 18-hr incubation period, the supernatants were collected, and the level of IFN-γ was determined by ELISA (limit of sensitivity: 10 pg/ml).
The assay was carried out in quadruplicate, and the mean of two wells which show the highest significance compared to the control is shown in Table 1.
It was then determined whether PBMCs stimulated by either the PTHrP 36-44 or the PTHrP 102-111 peptide could induce prostate cancer-reactive CTLs from HLA-A24^+ healthy donors and prostate cancer patients. PBMCs from HLA-A24^+ healthy donors and prostate cancer patients were repeatedly stimulated with these PTHrP peptides. On day 15, half of the cultured cells were harvested, pooled from 4 wells, and cultured with C1R-A24 cells, which were pre-pulsed with the HIV peptide (open symbol) and the indicated PTHrP peptide (closed symbol) for 18-hr. The levels of IFN-γ in the supernatants were then determined by ELISA.

[2] = system: IgG in plasma of HLA-A24^+ healthy donors and prostate cancer patients; experiment: Peptide-specific IgG in plasma by ELISA (HLA-A24-binding PTHrP peptides); parameters: species or system human; conditions: for IgG reactive to the peptide in plasma: 1:100-diluted plasma
Source text: The inventors previously reported that IgGs reactive to CTL epitope peptides were detected in healthy donors and patients with various types of cancers. IgGs reactive to prostate-related antigens were also detected in healthy donors and prostate cancer patients. It was examined, therefore, whether IgG reactive to the four PTHrP-derived peptides, PTHrP 36-44, PTHrP 102-111, PTHrP 25-34, and PTHrP 110-119, could be detected in the plasma of cancer patients and healthy donors.
Peptide-specific IgG levels in the plasma were measured by ELISA, as previously reported. In brief, peptide (20 μg/well)-immobilized plates were blocked with Block Ace (Yukijirushi, Tokyo, Japan) and washed with 0.05% Tween20-PBS, after which 100 μl/well of plasma sample diluted with 0.05% Tween20-Block Ace was added to the plate. After 2 hours incubation at 37° C., the plates were washed and further incubated for 2 hours with a 1:1000-diluted rabbit anti-human IgG (γ-chain-specific) (DAKO, Glostrup, Denmark). The plates were washed, and then 100 μl of 1:100-diluted goat anti-rabbit IgG-conjugated horseradish peroxidase (EnVision, DAKO) was added to each well, and the plates were then incubated at room temperature for 40 min. After the plates were washed once, 100 μl/well of tetramethyl benzidine substrate solution (KPL, Guildford, UK) was added, and the reaction was stopped by the addition of 1 M phosphoric acid. The values are shown as optical density (OD) units/ml, and responses to the HIV peptide were subtracted. IgG reactive to a corresponding PTHrP peptide was judged to be positive when the difference of the OD in 1:100-diluted plasma exceeded 0.05. The results that IgG reactive to either the PTHrP102-111 or the […] peptide was detected in 8 of 10 healthy donors and in 7 of 10 prostate cancers are shown in Table 2 hereinafter.
To confirm the specificity of IgG to the indicated PTHrP peptide, 100 μl of sample plasma from either HD #1 and Pt #6 was cultured in a plate pre-coated with either a corresponding PTHrP peptide or an irrelevant PTHrP peptide. Thereafter, the levels of IgG reactive to the PTHrP 102-111 peptide or the PTHrP 110-119 peptide in the resulting supernatants were determined by ELISA.

[3] = HLA-A24^+ prostate cancer patient #1
[4] = HLA-A24^+ prostate cancer patient #2
[5] = HLA-A24^+ prostate cancer patient #3
[6] = HLA-A24^+ prostate cancer patient #4
[7] = HLA-A24^+ prostate cancer patient #5
[8] = HLA-A24^+ prostate cancer patient #6
[9] = HLA-A24^+ prostate cancer patient #7
[10] = HLA-A24^+ prostate cancer patient #8
[11] = HLA-A24^+ prostate cancer patient #9
[12] = HLA-A24^+ prostate cancer patient #10
[13] = HLA-A24^+ prostate cancer patients

RYLTQETNKV [PTHrP 102-111]
IFN-γ production ([1]; HLA-A24^+ healthy donor #1): 352 pg/mL
IFN-γ production ([1]; HLA-A24^+ healthy donor #2): 132 pg/mL
IFN-γ production ([1]; HLA-A24^+ healthy donor #3): 0 pg/mL
IFN-γ production ([1]; HLA-A24^+ healthy donor #4): 0 pg/mL
IFN-γ production ([1]; HLA-A24^+ healthy donor #5): 0 pg/mL
IFN-γ production ([1]; HLA-A24^+ healthy donor #6): 0 pg/mL
IFN-γ production ([1]; HLA-A24^+ healthy donor #7): 38 pg/mL
IFN-γ production ([1]; HLA-A24^+ healthy donor #8): 194 pg/mL
IFN-γ production ([1]; HLA-A24^+ healthy donor #9): 5624 pg/mL
IFN-γ production ([1]; HLA-A24^+ healthy donor #10): 168 pg/mL
induced peptide-specific CTLs, number of donors ([1]; HLA-A24^+ healthy donors): 5 of 10
Total (donors with significant peptide-specific IFN-γ production / donors tested) ([1]; HLA-A24^+ healthy donors, p < 0.05): 5/10
IFN-γ production [1, 3]: 154 pg/mL
IFN-γ production [1, 4]: 138 pg/mL
IFN-γ production [1, 5]: 8 pg/mL
IFN-γ production [1, 6]: 105 pg/mL
IFN-γ production [1, 7]: 28 pg/mL
IFN-γ production [1, 8]: 4 pg/mL
IFN-γ production [1, 9]: 0 pg/mL
IFN-γ production [1, 10]: 1060 pg/mL
IFN-γ production [1, 11]: 101 pg/mL
IFN-γ production [1, 12]: 198 pg/mL
induced peptide-specific CTLs (peptide-specific IFN-γ production), number of patients [1, 13]: 6 of 10
Total (patients with significant peptide-specific IFN-γ production / patients tested) ([1]; HLA-A24^+ prostate cancer patients, p < 0.05): 6/10
IgG reactive to the peptide in plasma ([2]; HLA-A24^+ healthy donor #1): + (IgG reactive to a corresponding peptide was judged to be positive when the difference of the OD in 1:100-diluted plasma exceeded 0.05.)
IgG reactive to the peptide in plasma ([2]; HLA-A24^+ healthy donor #2): − (IgG reactive to a corresponding peptide was judged to be positive when the difference of the OD in 1:100-diluted plasma exceeded 0.05.)
IgG reactive to the peptide in plasma ([2]; HLA-A24^+ healthy donor #3): + (IgG reactive to a corresponding peptide was judged to be positive when the difference of the OD in 1:100-diluted plasma exceeded 0.05.)
IgG reactive to the peptide in plasma ([2]; HLA-A24^+ healthy donor #4): + (IgG reactive to a corresponding peptide was judged to be positive when the difference of the OD in 1:100-diluted plasma exceeded 0.05.)
IgG reactive to the peptide in plasma ([2]; HLA-A24^+ healthy donor #5): + (IgG reactive to a corresponding peptide was judged to be positive when the difference of the OD in 1:100-diluted plasma exceeded 0.05.)
IgG reactive to the peptide in plasma ([2]; HLA-A24^+ healthy donor #6): − (IgG reactive to a corresponding peptide was judged to be positive when the difference of the OD in 1:100-diluted plasma exceeded 0.05.)
IgG reactive to the peptide in plasma ([2]; HLA-A24^+ healthy donor #7): + (IgG reactive to a corresponding peptide was judged to be positive when the difference of the OD in 1:100-diluted plasma exceeded 0.05.)
IgG reactive to the peptide in plasma ([2]; HLA-A24^+ healthy donor #8): + (IgG reactive to a corresponding peptide was judged to be positive when the difference of the OD in 1:100-diluted plasma exceeded 0.05.)
IgG reactive to the peptide in plasma ([2]; HLA-A24^+ healthy donor #9): + (IgG reactive to a corresponding peptide was judged to be positive when the difference of the OD in 1:100-diluted plasma exceeded 0.05.)
IgG reactive to the peptide in plasma ([2]; HLA-A24^+ healthy donor #10): + (IgG reactive to a corresponding peptide was judged to be positive when the difference of the OD in 1:100-diluted plasma exceeded 0.05.)
IgG reactive to the peptide detected, number of donors ([2]; HLA-A24^+ healthy donors): 8 of 10
Total (IgG-positive donors / donors tested) ([2]; HLA-A24^+ healthy donors): 8/10
IgG reactive to the peptide in plasma [2, 3]: + (IgG reactive to a corresponding peptide was judged to be positive when the difference of the OD in 1:100-diluted plasma exceeded 0.05.)
IgG reactive to the peptide in plasma [2, 4]: + (IgG reactive to a corresponding peptide was judged to be positive when the difference of the OD in 1:100-diluted plasma exceeded 0.05.)
IgG reactive to the peptide in plasma [2, 5]: − (IgG reactive to a corresponding peptide was judged to be positive when the difference of the OD in 1:100-diluted plasma exceeded 0.05.)
IgG reactive to the peptide in plasma [2, 6]: − (IgG reactive to a corresponding peptide was judged to be positive when the difference of the OD in 1:100-diluted plasma exceeded 0.05.)
IgG reactive to the peptide in plasma [2, 7]: + (IgG reactive to a corresponding peptide was judged to be positive when the difference of the OD in 1:100-diluted plasma exceeded 0.05.)
IgG reactive to the peptide in plasma [2, 8]: + (IgG reactive to a corresponding peptide was judged to be positive when the difference of the OD in 1:100-diluted plasma exceeded 0.05.)
IgG reactive to the peptide in plasma [2, 9]: + (IgG reactive to a corresponding peptide was judged to be positive when the difference of the OD in 1:100-diluted plasma exceeded 0.05.)
IgG reactive to the peptide in plasma [2, 10]: + (IgG reactive to a corresponding peptide was judged to be positive when the difference of the OD in 1:100-diluted plasma exceeded 0.05.)
IgG reactive to the peptide in plasma [2, 11]: + (IgG reactive to a corresponding peptide was judged to be positive when the difference of the OD in 1:100-diluted plasma exceeded 0.05.)
IgG reactive to the peptide in plasma [2, 12]: − (IgG reactive to a corresponding peptide was judged to be positive when the difference of the OD in 1:100-diluted plasma exceeded 0.05.)
IgG reactive to the peptide detected, number of patients [2, 13]: 7 of 10
Total (IgG-positive patients / patients tested) [2, 13]: 7/10
Peptide-specific absorption of IgG (level after culturing plasma in corresponding peptide-coated wells) ([2]; plasma from HD #1 and Pt #6, FIG. 3B): significantly diminished
Level of peptide-specific IgG, advanced HRPC vs non-advanced prostate cancer ([2]; unpublished data): lower in patients with advanced HRPC than in those with non-advanced prostate cancer
